Data as given in PubChem BioAssay AID504791 (Drosophila RNAi Screening Center, 2011).
The screen tested about 23,000 reagents; this is an unselected part of those with a known target gene and a result. In the full data, 199 (0.86%) were called active. 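Plate-scaled ratios behind the calls are not deposited; printed light signals are raw; many rows marked increased or decreased are still called inactive.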 Not given: the direction of the score.

- Assay: 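Factors in Argonaute-based small RNA production and activity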 (primary screen)
- Cells: Drosophila S2-derived reporter cells
- Reagent: long dsRNA against Drosophila genes, about 150-250 ng dsRNA per well (siRNA assay); about 80-120 ng (miRNA assay)
- Duration: about 5 days (siRNA assay); about 4 days (miRNA assay)
- Conditions: copper sulfate induction of reporters: 25 µM (siRNA assay); 200 mM stated (miRNA assay), 1-2 days before reading
- Read-out: 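Per-well ratio of Renilla over firefly light, expressed relative to that plate's average ratio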
- Hit rule: 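a well was a first-pass pick when its plate-scaled ratio rose above 1.5 (siRNA assay) or 1.6 (miRNA assay), or dropped below 0.6; a gene counted only if two separate dsRNAs agreed on retest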

| target | DRSC id | stable siRNA reporter change | miRNA reporter change | stable assay Renilla, run 1 (luminescence) | stable assay firefly, run 1 (luminescence) | call |
| --- | --- | --- | --- | --- | --- | --- |
| pch2 | DRSC14368 | – | – | 6702 | 4.30e5 | inactive |
| Obp99d | DRSC15046 | – | – | 5851 | 4.38e5 | inactive |
| CG12253 | DRSC02153 | – | – | 6268 | 9.63e5 | inactive |
| CG7627 | DRSC03065 | – | – | 64076 | 7.62e5 | inactive |
| Nin | DRSC02007 | – | – | 19010 | 4.01e5 | inactive |
| CG14247 | DRSC14742 | – | – | 5102 | 2.62e5 | inactive |
| CG34045 | DRSC05787 | – | – | 5703 | 5.89e5 | inactive |
| Pdp1 | DRSC08896 | – | reporter ratio raised past the hit cutoff | 2748 | 2.16e5 | inactive |
| Pdp1 | DRSC08897 | – | – | 3204 | 2.16e5 | inactive |
| Pdp1 | DRSC11251 | – | – | 6638 | 4.66e5 | inactive |
| Pdp1 | DRSC22973 | – | – | 3595 | 3.63e5 | inactive |
| Mcr | DRSC03366 | – | – | 10637 | 7.71e5 | inactive |
| CG18417 | DRSC10319 | – | – | 6134 | 3.67e5 | inactive |
| CG11211 | DRSC04851 | – | – | 6562 | 4.16e5 | inactive |
| cd | DRSC16157 | – | – | 7150 | 3.61e5 | inactive |
| CG17261 | DRSC00498 | – | – | 8297 | 4.47e5 | inactive |
| CG12105 | DRSC08255 | – | – | 9198 | 3.20e5 | inactive |
| vg | DRSC07715 | – | – | 4339 | 3.99e5 | inactive |
| vg | DRSC22669 | – | – | 4107 | 4.63e5 | inactive |
| CG14277 | DRSC02380 | – | – | 7468 | 3.65e5 | inactive |
| Iris | DRSC00663 | – | – | 42155 | 4.13e5 | inactive |
| CG32374 | DRSC10986 | – | – | 7000 | 5.09e5 | inactive |
| CG14341 | DRSC00371 | reporter ratio lowered past the hit cutoff | – | 5186 | 4.90e5 | inactive |
| Rnb | DRSC16325 | – | – | 7786 | 3.32e5 | inactive |
| CG14257 | DRSC14752 | – | – | 6574 | 3.53e5 | inactive |
| RpS10b | DRSC19561 | – | – | 4827 | 3.43e5 | inactive |
| CR15821 | DRSC08481 | – | – | 6546 | 2.98e5 | inactive |
| agt | DRSC12611 | – | – | 6814 | 4.27e5 | inactive |
| Gr77a | DRSC11446 | – | – | 7244 | 4.83e5 | inactive |
| CG3277 | DRSC00588 | – | – | 6151 | 3.57e5 | inactive |
| Snap25 | DRSC21228 | – | – | 5727 | 5.11e5 | inactive |
| Snap25 | DRSC21236 | – | – | 4655 | 3.62e5 | inactive |
| sktl | DRSC04715 | – | – | 88793 | 3.66e5 | inactive |
| CG8675 | DRSC20117 | – | – | 7303 | 4.30e5 | inactive |
